According to article PMC9812374:
These are yes or no findings as the source states them, for the method shown. Binding seen in cells or lysates may run through a third protein. These calls come from enrichment with a bait or labelling near it, and not all partners need be listed.

Protein sequences, listed by entry. Tags and fused reporters are not part of them.
UniProt Q8S307: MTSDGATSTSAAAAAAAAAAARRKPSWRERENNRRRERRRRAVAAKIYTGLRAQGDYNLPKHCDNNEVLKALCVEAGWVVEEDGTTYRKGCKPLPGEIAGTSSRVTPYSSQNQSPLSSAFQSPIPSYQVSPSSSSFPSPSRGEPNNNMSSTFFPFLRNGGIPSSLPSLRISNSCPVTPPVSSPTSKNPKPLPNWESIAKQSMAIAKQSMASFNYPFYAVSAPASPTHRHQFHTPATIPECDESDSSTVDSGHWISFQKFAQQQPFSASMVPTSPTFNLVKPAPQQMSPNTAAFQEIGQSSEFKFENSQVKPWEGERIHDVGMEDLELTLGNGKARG

Target: BZR1-YFP (brassinazole-resistant 1 fused to yellow fluorescent protein) (Arabidopsis) (UniProt Q8S307)
Assay: affinity purification with mass spectrometry; lysates of 35S::BZR1-YFP and 35S::GFP seedlings on anti-GFP agarose beads, 4°C, 4 hours; 1% Triton X-100, 150 mM NaCl, 50 mM tris-HCl pH 7.5, 5 mM EDTA; LC-MS/MS of the bound proteins

binding: binds
B1: GRF4 (general regulatory factor 4), endogenous (protein, UniProt P46077 1-267)
chain: MAAPPASSSAREEFVYLAKLAEQAERYEEMVEFMEKVAEAVDKDELTVEERNLLSVAYKNVIGARRASWRIISSIEQKEESRGNDDHVTTIRDYRSKIESELSKICDGILKLLDTRLVPASANGDSKVFYLKMKGDYHRYLAEFKTGQERKDAAEHTLTAYKAAQDIANAELAPTHPIRLGLALNFSVFYYEILNSPDRACNLAKQAFDEAIAELDTLGEESYKDSTLIMQLLRDNLTLWTSDMQDESPEEIKEAAAPKPAEEQKEI
